## Percent effect of library compounds

Sequences of proteins named here, by UniProt entry; tags and fusion partners are left off.
UniProt I6X8D2, whole entry: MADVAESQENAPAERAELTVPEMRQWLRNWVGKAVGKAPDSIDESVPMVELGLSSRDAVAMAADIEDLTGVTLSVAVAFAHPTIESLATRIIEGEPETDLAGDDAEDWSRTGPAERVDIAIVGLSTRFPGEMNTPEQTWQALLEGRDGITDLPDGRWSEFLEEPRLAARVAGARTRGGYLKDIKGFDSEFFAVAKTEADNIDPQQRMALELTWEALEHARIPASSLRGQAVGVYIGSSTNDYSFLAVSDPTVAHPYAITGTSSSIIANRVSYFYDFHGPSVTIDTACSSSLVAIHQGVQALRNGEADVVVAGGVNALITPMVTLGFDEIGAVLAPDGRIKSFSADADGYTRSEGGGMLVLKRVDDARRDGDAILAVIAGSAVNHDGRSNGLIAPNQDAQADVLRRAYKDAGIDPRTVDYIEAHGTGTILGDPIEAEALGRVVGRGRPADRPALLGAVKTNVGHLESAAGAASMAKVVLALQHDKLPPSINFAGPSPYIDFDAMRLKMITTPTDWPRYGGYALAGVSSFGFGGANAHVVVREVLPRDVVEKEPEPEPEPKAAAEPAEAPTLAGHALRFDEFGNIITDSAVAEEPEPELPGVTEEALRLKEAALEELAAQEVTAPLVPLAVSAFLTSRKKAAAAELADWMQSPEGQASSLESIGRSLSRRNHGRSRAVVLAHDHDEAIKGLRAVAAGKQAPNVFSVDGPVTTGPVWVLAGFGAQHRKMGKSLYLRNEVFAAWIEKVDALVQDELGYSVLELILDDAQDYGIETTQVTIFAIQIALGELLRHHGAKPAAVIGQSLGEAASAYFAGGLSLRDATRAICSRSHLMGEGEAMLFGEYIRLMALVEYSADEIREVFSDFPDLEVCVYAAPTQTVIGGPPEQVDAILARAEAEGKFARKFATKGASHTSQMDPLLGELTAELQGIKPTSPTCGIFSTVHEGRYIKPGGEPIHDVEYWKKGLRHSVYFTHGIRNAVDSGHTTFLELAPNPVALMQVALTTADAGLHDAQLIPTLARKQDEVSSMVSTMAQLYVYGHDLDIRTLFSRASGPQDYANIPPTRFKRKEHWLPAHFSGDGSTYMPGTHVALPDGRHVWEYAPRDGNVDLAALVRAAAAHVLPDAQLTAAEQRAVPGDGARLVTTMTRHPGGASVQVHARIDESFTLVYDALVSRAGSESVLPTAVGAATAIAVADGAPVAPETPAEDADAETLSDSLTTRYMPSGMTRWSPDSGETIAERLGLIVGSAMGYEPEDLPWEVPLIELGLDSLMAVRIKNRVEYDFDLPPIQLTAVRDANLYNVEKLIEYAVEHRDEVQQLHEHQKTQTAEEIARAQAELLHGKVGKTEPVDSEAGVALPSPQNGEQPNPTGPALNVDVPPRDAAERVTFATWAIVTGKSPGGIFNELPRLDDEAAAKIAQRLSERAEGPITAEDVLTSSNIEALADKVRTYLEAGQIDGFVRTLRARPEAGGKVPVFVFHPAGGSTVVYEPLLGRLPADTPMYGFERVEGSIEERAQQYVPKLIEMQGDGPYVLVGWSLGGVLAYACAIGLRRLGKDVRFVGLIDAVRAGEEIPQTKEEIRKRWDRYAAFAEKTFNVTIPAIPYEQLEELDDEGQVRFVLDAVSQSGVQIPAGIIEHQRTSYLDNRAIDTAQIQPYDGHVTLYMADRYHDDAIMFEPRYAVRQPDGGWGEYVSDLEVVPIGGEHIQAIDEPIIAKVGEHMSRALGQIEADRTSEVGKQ

Data taken from ChEMBL document CHEMBL3988442, “University of Dundee, Small-Polar-MMV Screening Library” (2021).

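Polyketide synthase Pks13, Mycobacterium tuberculosis (UniProt I6X8D2). Enzyme assay of the thioesterase domain of polyketide synthase 13; the read-out is not stated. Concentration: 30 µM. The record gives no direction; the compounds picked for IC50 retests had high values, so higher reads as stronger inhibition. About 67,000 compounds were tested under these conditions; 0.46% (about 300) showed 50% or more at least once.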

Each number is a percent effect as filed. The controls that fix the scale are not given in the record; negative values are as filed. The compounds are a random part of those screened.

- CNS(=O)(=O)CC(=O)NC(C)Cc1ccccc1Br (stereo not shown) : -4.432%
- COC1CN(CCO)S(=O)(=O)c2ccccc21 (stereo not shown) : 7.353%
- Cn1ccnc1C(=O)NC[C@@H]1OC[C@H]2CN(CC3CC3)CC[C@H]21 : -1.516%
- CCC[C@@H]1CN(Cc2cc(OC)c3c(c2)OCO3)C[C@H]1C(=O)O : -28.52%
- COCc1cncc2c1CCN(C(=O)c1cccc(C#N)c1)C2 : -9.886%
- CCCN(C)c1ncc2c(n1)N(C)CCN(CC1CC1)C2=O : 1.945%
- O=C(c1cc2c(F)cccc2[nH]1)N1CCC(Nc2cccnn2)CC1 : -10.77%
- O=C(Nc1ccccc1OC(F)F)C1=NN(c2ccccc2)C(=O)CN1 : -37.84%
- CC(NC(=O)c1cccs1)(C(N)=O)c1cccc(C(F)(F)F)c1 (stereo not shown) : -3.307%
- CN(C)CC(=O)N1CCOCC2(C1)CN(c1ccccc1)C(=O)CO2 (stereo not shown) : 0.2696%
- Cc1cc(C)cc(NCCC(=O)NCc2cccnc2N(C)C)c1 : -7.389%
- Cc1c(F)cccc1S(=O)(=O)NCCN : -14.79%
- CC(=O)N1CCN(CC(=O)N2CCN(c3cccc(C)c3)CC2)CC1 : -3.291%
- CC[C@H]1CN(C(=O)c2cccnc2)CC[C@H]1CC(=O)NCCOC : 16.1%
- O=C(NCc1ccccc1F)C1=NOC2(CCNC2)C1 (stereo not shown) : -4.099%
- CC(=O)NCC1CCN(C(=O)c2ccc(Sc3ccccn3)cc2)CC1 : -5.186%
- O=C(c1cnc2ccc(Cl)cc2c1NCc1ccco1)N1CCCCC1 : -21.15%
- Cc1cc(C)c(CNC(=O)NCCOc2ccc3c(c2)CCC3)c(=O)[nH]1 : -10.79%
- CC(=O)N1CCC(NS(=O)(=O)c2cccnc2)CC1 : -11.55%
- COCc1ccc(C(=O)N2CCN(CC(C)O)CC2)cc1 (stereo not shown) : -1.409%
- O=S(=O)(NC1CCCN(c2ncccn2)C1)N1CCCCCC1 (stereo not shown) : 6.118%
- Cc1cnn(C2CCCN(C(=O)C3=NN(C)C(=O)CC3)C2)c1 (stereo not shown) : -2.01%
- CCCc1cc(C(=O)NCCn2nc3ccccn3c2=O)[nH]n1 : 10.55%
- Cc1cnn(CCNCc2nc(Cc3ccccc3)no2)c1 : -4.481%
- CCN(CC)C(=O)[C@@H]1C[C@@H](N)CN1C(=O)c1cc2c([nH]c1=O)CCC2 : -17.84%
- O=C(C1CCCOC1)N1CCCc2ccccc21 (stereo not shown) : -41.72%
- CS(=O)(=O)NC[C@]12COC[C@H]1CN(C(=O)C1CCSCC1)C2 : -16.05%
- Cn1c(CN2CCOC(Cn3cncn3)C2)nc2ccccc21 (stereo not shown) : -14.85%
- Cc1nc(CC(=O)N2CCOC(c3nc(C(C)(C)C)n[nH]3)C2)cs1 (stereo not shown) : -17.3%
- O=C(NCCNc1ncccn1)N1CCN(Cc2cccnc2)CC1 : -4.321%
- O=C(CN1CCC(c2ccnn2CCO)CC1)NCc1cccs1 : -39.92%
- CNC(=O)C(C)CN(C)C(=O)Nc1ccc(Cl)cc1-n1cccc1 (stereo not shown) : -18.46%
- CCN1CCN(c2nsc(-c3cccnc3)c2C#N)CC1 : 2.089%
- Cc1cc(C(=O)N2CC[C@H](N3CCN(C)CC3)[C@H](CCCO)C2)n(C)n1 : -24.01%
- O=C(CCn1c(=O)oc2ccccc21)NCC(O)c1ccc(Cl)cc1 (stereo not shown) : 12.87%
- CC(=O)N1CCC2(CC1)CN(C(=O)C1CC1)c1ccc(F)cc12 : -9.742%
- Cc1nc(C)n(CC2CCCN(c3ncnc4[nH]ccc34)C2)n1 (stereo not shown) : -8.895%
- CCC(=O)Nc1cc(Br)cnc1OCC(F)(F)F : -13.16%
- COc1ccccc1C(C)(C)NC(=O)c1ccc(F)c(NC(C)=O)c1 : -6.208%
- Cc1cc(C)nc(N(C)CCN(C)C2CCCC2)n1 : -20.79%
- Cc1cc(=O)n2nc(Oc3cc(Cl)cc(Cl)c3)sc2n1 : 30.54%
- CCC1c2ccsc2CCN1C(=O)NCc1cc[nH]n1 (stereo not shown) : -10.65%
- c1cnc(NC[C@H]2OC[C@@H]3CCN(Cc4ccsc4)C[C@@H]32)nc1 : -14.02%
- COCCCn1ccnc1-c1cnc(OC)nc1 : -22.01%
- CCc1n[nH]c(NC(=O)c2ccc(Cl)cn2)c1Br : -10.24%
- NC(=O)NC(=O)CCn1ccc(-c2ccsc2)n1 : 11.83%

Some entries from above, unchanged:

{"smiles": "Cc1cc(=O)n2nc(Oc3cc(Cl)cc(Cl)c3)sc2n1", "Percent Effect": 30.54}
{"smiles": "CCN1CCN(c2nsc(-c3cccnc3)c2C#N)CC1", "Percent Effect": 2.089}
{"smiles": "NC(=O)NC(=O)CCn1ccc(-c2ccsc2)n1", "Percent Effect": 11.83}
{"smiles": "Cc1c(F)cccc1S(=O)(=O)NCCN", "Percent Effect": -14.79}
{"smiles": "CCN(CC)C(=O)[C@@H]1C[C@@H](N)CN1C(=O)c1cc2c([nH]c1=O)CCC2", "Percent Effect": -17.84}